Experimental data as given in PubChem BioAssay AID720504 (National Center for Advancing Translational Sciences (NCATS), 2013).
Among all 360,000 compounds or so, about 10,000 (2.8%) were called active. Inconclusive results, whose numbers are uncertain, are shown with a selection of clear calls. The call rests on the fitted dose curve; in most records, active means well fitted inhibition curve with a large enough effect; inconclusive means small, poorly fitted or top-dose-only effect; inactive means flat fitted curve, though single readings scatter. A potency beside an inconclusive call is a rough fit, not a confirmed value.

Protein sequences, listed by entry. Tags and fused reporters are not part of them.
UniProt P53350, whole entry, looked up: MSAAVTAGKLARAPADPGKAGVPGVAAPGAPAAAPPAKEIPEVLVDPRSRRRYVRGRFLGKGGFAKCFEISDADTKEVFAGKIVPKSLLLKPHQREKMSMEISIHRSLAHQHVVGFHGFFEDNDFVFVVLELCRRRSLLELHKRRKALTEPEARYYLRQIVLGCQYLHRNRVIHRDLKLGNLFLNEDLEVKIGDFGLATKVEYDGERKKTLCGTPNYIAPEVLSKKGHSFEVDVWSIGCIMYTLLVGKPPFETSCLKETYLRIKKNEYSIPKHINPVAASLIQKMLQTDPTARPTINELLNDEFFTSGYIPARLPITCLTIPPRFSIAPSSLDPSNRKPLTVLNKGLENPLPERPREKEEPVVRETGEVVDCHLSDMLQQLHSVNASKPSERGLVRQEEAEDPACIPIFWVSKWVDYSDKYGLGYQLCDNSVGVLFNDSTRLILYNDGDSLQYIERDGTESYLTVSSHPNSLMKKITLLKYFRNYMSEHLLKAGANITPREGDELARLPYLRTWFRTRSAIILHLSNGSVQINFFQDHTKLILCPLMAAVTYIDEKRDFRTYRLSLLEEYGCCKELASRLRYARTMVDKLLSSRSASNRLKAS

molecular target: Serine/threonine-protein kinase PLK1 (Homo sapiens) (UniProt P53350); assay: qHTS for Inhibitors of PLK1-PDB (polo-like kinase 1 - polo-box domain): Primary Screen; conditions: Plk1 PBD binding of FITC phosphopeptide, fluorescence polarization; further: nearly all actives have a fitted effect of over 65% in size; on max response, negative = inhibition: series mostly up to about 57 µM
On the % scale 0 is the no-effect control and ±100 the full control effect; potency means the concentration at half of the fitted maximal effect.

Q: For `C=CCNC(=O)/C(C#N)=C/c1ccc(OS(=O)(=O)c2ccc(C)cc2)c(OC)c1`, which Potency is on record?
A: inconclusive: 18.9 µM [inhibitor, partial curve]

Q: For `O=C(CSc1nccc(-c2ccc(Br)cc2)n1)NCCc1ccccc1`, which Potency is on record?
A: inconclusive: 23.8 µM [inhibitor, partial curve]

Q: `CCOC(=O)c1ccc(NC(=O)CSCc2ccco2)cc1` was tested. Which Potency did it give?
A: inconclusive: 26.7 µM [inhibitor, partial curve]

Q: With `O=C(CSc1nc2ccccc2c(=O)n1CCC(=O)N1CCN(c2ccccc2)CC1)NCC1CCCO1` (stereo unspecified) as the compound, how does the Potency read?
A: inconclusive: 23.8 µM [inhibitor, single point]

Q: With `Cc1ccc(C(=O)CSc2nc3cc(S(=O)(=O)N4CCOCC4)ccc3o2)cc1` as the compound, how does the Potency read?
A: active: 23.8 µM

Q: Which max response, negative = inhibition does the source give for `COc1nc(Nc2cccc(F)c2)nc(OC)n1` here?
A: inactive: -4.94%

Q: `CCCCc1c(O)nc(SCC(=O)c2ccccc2)[nH]c1=O` was tested. Which Potency did it give?
A: inconclusive: 29.9 µM [inhibitor, partial curve]

Q: `CCCCN1CC(=O)N2[C@@H]3c4cc(Br)ccc4OC[C@@H]3[C@H](C(=O)OCC)[C@]2(C)C1=O` was tested. Which max response, negative = inhibition did it give?
A: inconclusive: -32.5% [inhibitor]

Q: With `CCCCCCn1cc(CN2CC(N3CCN(C4CCN(C)CC4)CC3)CS2(=O)=O)nn1` (stereo unspecified) as the compound, how does the max response, negative = inhibition read?
A: inactive: -3.25%

Q: For `COc1ccc2c(c1)[C@H]1[C@H](CO2)[C@H](c2ccccc2)[C@@]2(C)C(=O)N[C@H](C)C(=O)N12`, which max response, negative = inhibition is on record?
A: inactive: -16.8%

Q: With `Cc1cc(Br)ccc1SCC(=O)N1CCN(S(=O)(=O)c2ccccc2)CC1` as the compound, how does the Potency read?
A: inconclusive: 10.6 µM [inhibitor, partial curve]

Q: How did the Potency turn out when `O=C(c1cc(-n2cnnc2)ccc1Cl)N1CCN(c2nc(-c3ccccc3)cs2)CC1` was run?
A: inconclusive: 47.4 µM [inhibitor, partial curve]

Q: `Cc1sc2nc(CSCC(=O)Nc3ccc(N4CCOCC4)cc3)[nH]c(=O)c2c1C` was tested. Which Potency did it give?
A: active: 29.9 µM

Q: How did the Potency turn out when `CC1(C)CC[C@]2(C(=O)O)CC[C@]3(C)C(=CC[C@@H]4[C@@]5(C)CC[C@H](O)C(C)(C)[C@@H]5CC[C@]43C)[C@@H]2C1` was run?
A: inconclusive: 26.7 µM [inhibitor, single point]

Q: How did the max response, negative = inhibition turn out when `Cc1ccc(C(=O)N2CCN(C3c4cccc5cccc(c45)C3NS(=O)(=O)c3ccccc3)CC2)cc1` (stereo unspecified) was run?
A: inactive: -1.08%

Q: For `CC1(C)OC2C(CO)OC(n3cnc4c(=S)nc(N)[nH]c43)C2O1` (stereo unspecified), which max response, negative = inhibition is on record?
A: inconclusive: -30.9% [inhibitor]

Q: How did the max response, negative = inhibition turn out when `CC(=O)c1ccc(NC(=O)CSc2cn[nH]n2)cc1` was run?
A: inactive: -13.1%

Q: Which Potency does the source give for `Cc1ccc(NC(=O)Cc2nc(-c3c[nH]c(C(=O)N4CCCC4)c3)cs2)c(C)c1` here?
A: inconclusive: 26.7 µM [inhibitor, single point]

Q: With `COc1ccc(N2C3=C(CC4=C2CCCC4=O)C(=O)CCC3)cc1` as the compound, how does the Potency read?
A: active: 21.2 µM

Q: For `CCCc1cc(=O)oc2cc(C)c(CN3CCCC3)c(O)c12`, which Potency is on record?
A: inconclusive: 29.9 µM [inhibitor, partial curve]

Q: Which max response, negative = inhibition does the source give for `CCN(CC)c1ccc(NC(=O)C2CCCC2)cc1` here?
A: inactive: -1.79%

Q: With `O=C(N1CCOCC1)N1CCN(S(=O)(=O)N2CCOCC2)CC1` as the compound, how does the max response, negative = inhibition read?
A: inactive: -6.03%

Q: `C/C=C(\C)C(=O)NCCN1C2=NC[C@H](C(C)C)N2C[C@H]1Cc1ccc(O)cc1` was tested. Which Potency did it give?
A: inconclusive: 23.8 µM [inhibitor, single point]

Q: How did the Potency turn out when `CC(C)(C)C(=O)n1nc(-c2ccccc2)oc1=O` was run?
A: inconclusive: 2.38 µM [inhibitor, full curve]

Q: Which max response, negative = inhibition does the source give for `CN(CC(=O)Nc1c(Cl)cccc1Cl)C(=O)CCNS(=O)(=O)c1ccccc1C(F)(F)F` here?
A: inactive: -0.519%

Q: With `CCOC(=O)NCCc1c(C)nc2c(c(C)nn2C(C)(C)C)c1C` as the compound, how does the Potency read?
A: inconclusive: 29.9 µM [inhibitor, single point]

Q: `O=C(NC1CCCCC1)Oc1cccc2ccccc12` was tested. Which Potency did it give?
A: active: 23.8 µM

Q: With `C=CCOc1cccc(C2C(C(=O)c3ccc(C)o3)=C(O)C(=O)N2c2nccs2)c1` (stereo unspecified) as the compound, how does the max response, negative = inhibition read?
A: inconclusive: -32.3% [inhibitor]

Q: How did the Potency turn out when `O=c1[nH]c2c(s1)C=Nc1ccccc1N2` was run?
A: active: 13.4 µM

Q: For `O=C(N/N=C/c1ccc(C(=O)O)cc1)C1=NNC(c2ccccc2)(c2ccccc2)C1`, which Potency is on record?
A: inconclusive: 9.47 µM [inhibitor, partial curve]

Q: `O=C(CCS(=O)(=O)c1ccc(Br)cc1)NC1CCCC1` was tested. Which Potency did it give?
A: inconclusive: 26.7 µM [inhibitor, partial curve]

Q: How did the max response, negative = inhibition turn out when `Cc1cccc(NC(=O)CCS(=O)(=O)c2ccc3c(c2)oc(=O)n3C)c1` was run?
A: inconclusive: -32.2% [inhibitor]

Q: With `Cc1cc(NC(=O)CSc2nc(CCC3CCCC3)nc3ccccc23)no1` as the compound, how does the max response, negative = inhibition read?
A: inactive: 0.29%

Q: `CCCC[n+]1c2ccccc2cc2ccccc21` was tested. Which Potency did it give?
A: active: 0.532 µM

Q: For `O=C(NCCC(F)(F)F)C1Cc2c(-c3ccc(Cl)cc3)ccnc2O1` (stereo unspecified), which max response, negative = inhibition is on record?
A: inactive: 0.877%

Q: `COC(=O)c1sc(N2C(=O)C(O)=C(C(=O)c3ccc(C)o3)C2c2ccc(F)cc2)nc1C` (stereo unspecified) was tested. Which Potency did it give?
A: inconclusive: 23.8 µM [inhibitor, single point]

Q: Which max response, negative = inhibition does the source give for `Cn1cccc1-c1nc2ccc([N+](=O)[O-])cc2[nH]1` here?
A: inactive: -17.2%

Q: For `COC(=O)N1C(=O)[C@](Cc2ccccc2)(c2ccccc2)N1C(=O)OC`, which Potency is on record?
A: active: 15 µM

Q: `Cc1cc(C(=O)Nc2sc(C)c(C)c2C#N)no1` was tested. Which max response, negative = inhibition did it give?
A: inactive: -28%

Q: `CCN(CC(=O)NCCc1ccccc1)S(=O)(=O)c1ccccc1` was tested. Which Potency did it give?
A: inconclusive: 26.7 µM [inhibitor, single point]

Q: How did the Potency turn out when `O=C(O)c1cnc(-c2ccccc2)nc1Sc1ccccc1Cl` was run?
A: inconclusive: 23.8 µM [inhibitor, single point]

Q: With `O=C(COC(=O)/C=C/c1ccc(Cl)cc1Cl)Nc1cccc(S(=O)(=O)NC2=NCCC2)c1` as the compound, how does the max response, negative = inhibition read?
A: inactive: 1.91%

Q: For `COc1ccccc1OC(=O)CCc1nc2ccccc2s1`, which Potency is on record?
A: inconclusive: 11.9 µM [inhibitor, partial curve]

Q: `Cc1cccc(CCNC(=O)CCc2nc(-c3ccccc3F)no2)c1` was tested. Which Potency did it give?
A: inconclusive: 15 µM [inhibitor, partial curve]

Q: For `COc1cccc(OCCOc2ccc(/C=C3\C(=N)N4N=C(S(C)(=O)=O)SC4=NC3=O)cc2OC)c1`, which Potency is on record?
A: inconclusive: 29.9 µM [inhibitor, single point]

Q: `COc1ccc2c(c1)OC(=O)CC2c1ccccc1OC` (stereo unspecified) was tested. Which max response, negative = inhibition did it give?
A: inactive: -9.92%

Q: For `Nc1nc(N)c2ncc(C(=O)CCc3ccccc3)nc2n1`, which Potency is on record?
A: active: 4.74 µM

Q: How did the Potency turn out when `O=[N+]([O-])c1ccc(/C=N/n2c(C3CCCCC3)n[nH]c2=S)cc1` was run?
A: inconclusive: 11.9 µM [inhibitor, partial curve]

Q: With `CN(C)C(=O)CCc1ccc2c3c([nH]c2c1)[C@]1(CCc2ccccc2)[C@@H](C(=O)N2CCCCC2)C[C@H](CC(=O)NCc2cccc(C(F)(F)F)c2)C(=O)N1CC3` as the compound, how does the Potency read?
A: active: 26.7 µM

Q: Which Potency does the source give for `COc1cccc(OC)c1C(=O)Nc1ccc([N+](=O)[O-])cn1` here?
A: inconclusive: 29.9 µM [inhibitor, partial curve]

Q: How did the Potency turn out when `COc1ccc(OC)c(NC(=O)CSc2sc3c(O)cc(=O)[nH]c3c2C#N)c1` was run?
A: inconclusive: 33.6 µM [inhibitor, single point]

Q: For `O=S(=O)(Nc1cccc(Cl)c1)c1ccc(-n2cccn2)cc1`, which max response, negative = inhibition is on record?
A: inactive: -14.1%

Q: For `O=C(C1CCN(S(=O)(=O)c2cnc[nH]2)CC1)N1CCN(c2ccc([N+](=O)[O-])cc2)CC1`, which max response, negative = inhibition is on record?
A: inconclusive: -5.73% [inhibitor]

Q: Which max response, negative = inhibition does the source give for `CCOc1ccccc1CNn1cnnc1` here?
A: inactive: 4.12%

Q: How did the Potency turn out when `Cc1nc(S(=O)(=O)N2CCOCC2)c(C#N)c(C)c1Cl` was run?
A: inconclusive: 26.7 µM [inhibitor, single point]

Q: With `O=C(CCNS(=O)(=O)c1cccc2nonc12)NC1CCCCCC1` as the compound, how does the Potency read?
A: inconclusive: 21.2 µM [inhibitor, single point]

Q: How did the Potency turn out when `O=[N+]([O-])c1cc(Cl)cc(/C=N/Nc2nc3ccccc3s2)c1O` was run?
A: active: 26.7 µM

Q: `CC(=O)C[C@@H](O)CC(=O)[C@H]1OC(=O)CCCCCCCCc2ccccc21` was tested. Which max response, negative = inhibition did it give?
A: inactive: -13.6%

Q: With `O=C(c1cnn(C(=O)c2ccco2)c1)c1ccccc1O` as the compound, how does the Potency read?
A: inconclusive: 29.9 µM [inhibitor, partial curve]

Q: With `COC(=O)[C@]12CCCCC=C1N(Cc1ccco1)C(=O)[C@H](CC(=O)NCCC(C)C)C2` as the compound, how does the max response, negative = inhibition read?
A: inactive: -2.65%

Q: How did the max response, negative = inhibition turn out when `CCN(CC)CCOC(=O)C1(c2ccc(OC)c(OC)c2)CCCC1` was run?
A: inactive: 2.64%

Q: For `COC(=O)c1ccc(C(=O)OC)c(-n2c(=O)c3ccccc3c3ccccc3c2=O)c1`, which Potency is on record?
A: inconclusive: 23.8 µM [inhibitor, partial curve]

Q: With `CCOC(=O)c1cnn(-c2sc(C(=O)OCC)c(C)c2C(=O)OCC)c1N` as the compound, how does the max response, negative = inhibition read?
A: inconclusive: -34.2% [inhibitor]

Q: `COc1ccc(-n2c(=S)[nH]c3cc(C(=O)NCc4ccco4)ccc3c2=O)cc1OC` was tested. Which Potency did it give?
A: inconclusive: 33.6 µM [inhibitor, single point]

Q: How did the max response, negative = inhibition turn out when `CCOc1ccccc1C(=O)NCC(=O)N(C)Cc1cccnc1` was run?
A: inactive: -21.2%

Q: How did the Potency turn out when `CCc1nnc(NC(=O)CSc2nnc(-c3cccnc3)n2CCc2ccccc2)s1` was run?
A: inconclusive: 21.2 µM [inhibitor, single point]

Q: For `CCCCC(CCC(=O)Nc1cc([N+](=O)[O-])ccc1O)C(=O)O` (stereo unspecified), which Potency is on record?
A: inconclusive: 23.8 µM [inhibitor, single point]

Q: With `COc1cc(CNCc2ccc(OC)cc2OC)cc(OC)c1` as the compound, how does the max response, negative = inhibition read?
A: inactive: 0.857%

Q: Which Potency does the source give for `N#CN=C1SCCS1` here?
A: active: 3.36 µM

Q: `CCCCC(=O)Nc1cc(NC(=O)CCCC)cc(C(=O)O)c1` was tested. Which Potency did it give?
A: inconclusive: 23.8 µM [inhibitor, single point]

Q: With `Nc1c(C(=O)NCc2ccco2)sc2nc(N3CCOCC3)c3c(c12)CCCC3` as the compound, how does the Potency read?
A: inconclusive: 37.7 µM [inhibitor, single point]
